Test: Body weight of spinal cord contused rats
Format: in vivo, rat
Settings: 6 weeks after contusion, clenbuterol 9 mg/L in drinking water, mean±SE

CC(C)(C)NCC(O)c1cc(Cl)c(N)c(Cl)c1 (stereo not shown) [clenbuterol]
Final Body Wt (6.25 mm weight drop): 340 ± 11 gm | Final Body Wt (12.5 mm weight drop): 331 ± 6 gm | Final Body Wt (25 mm weight drop): 303 ± 8 gm | Final Body Wt (50 mm weight drop): 290 ± 8 gm

— patent US7135497B1, “Treating neural conditions resulting from spinal cord contusions and other causes” (New York Medical College, priority 2000, dated 2006)
